In paper PMC10117725, “From an Hsp90 - binding protein to a peptide drug” (microLife, 2022):
These are yes or no findings as the source states them, for the method shown. Binding calls can cover weak binding; strength is not graded here.

Protein sequences, listed by entry. Tags and fused reporters are not part of them. Lines headed by an entry give the natural chain unless they say otherwise; changes in a name come on top.
UniProt Q2FJK4: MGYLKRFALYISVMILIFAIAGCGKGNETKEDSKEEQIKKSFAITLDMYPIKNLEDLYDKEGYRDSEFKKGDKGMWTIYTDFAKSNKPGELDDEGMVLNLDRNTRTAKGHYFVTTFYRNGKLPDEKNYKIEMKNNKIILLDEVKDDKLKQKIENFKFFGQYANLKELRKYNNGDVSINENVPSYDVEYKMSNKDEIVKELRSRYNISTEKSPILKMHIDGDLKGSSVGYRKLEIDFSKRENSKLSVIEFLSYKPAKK

Assays:
Test in all cases: far-Western, overlay or dot blot; both purified
[1] = target: Lpl1-his (Staphylococcus aureus USA300) (UniProt Q2FJK4)
[2] = target: T1, L13 (Staphylococcus aureus USA300)
T1 sequence (peptide): GHYFVTTFY

[3] = target: T2, L15 (Staphylococcus aureus USA300)
T2 sequence (peptide): TAKGHYFVTTFYRNG

Row | Substance | binding [1] | binding [2] | binding [3]
1 | recombinant Hsp90α (from UniProt P07900 1-732) | binds | – | –
2 | Lpl1-his (from UniProt Q2FJK4) | – | binds | binds
